Measured values: PubChem BioAssay AID1508619 (National Center for Advancing Translational Sciences (NCATS), 2020)
“And” between values parts separate entries of the source, which are not always exact repeats. Identical values can stand only once. The inconclusive results got no clear call from the source; some entries with a clear call stand among them for comparison. Potencies of inconclusive entries are doubtful fits and often do not repeat. The source made the active and inactive calls. Calls follow the shape of the dose curve; as a rule, active = well fitted inhibition curve with a large enough effect; inconclusive = small, poorly fitted or top-dose-only effect; inactive = no such curve, though single readings can be large or run the other way.

Assay: Counterscreen qHTS for Identification of Calcium Integrin Binding Protein 1 (CIB1) Competitor
Conditions: series mostly up to 114 µM; activity, negative = inhibition: at the top concentration
Summary of the method: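 Counterscreen FP assay: CIB1-GST 1 uM in 5 mM HEPES pH 7.4, 125 mM NaCl, 5 mM CaCl2, 0.01% Tween20, with compounds up to 114 uM for 15 min, then 100 nM FITC-labelled scrambled peptide, 15 min, polarization read ex 480/em 540.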
% is scaled to controls: 0 for no effect and ±100 for the full control effect; potency is read from the fitted curve at half-maximal effect.

**Q.** For `CC(C)c1nc(Nc2nc3ccccc3o2)nc2c1CCCC2`, which Potency is on record?
**A.** inconclusive: 22.4 µM [inhibitor, partial curve, poor fit]

**Q.** Which “activity, negative = inhibition” value does the source give for `COC(=O)c1ccc(O)c2ncc(-c3ccc(C(=O)NCCCN(C)C)cc3)cc12` here?
**A.** inactive: 174%

**Q.** With `CC(=O)Nc1sc2c(c1-c1nc3ccccc3o1)CCN(C(C)C)C2` as the compound, how does the Potency read?
**A.** inconclusive: 50.1 µM [inhibitor, partial curve]

**Q.** For `OCc1ccc(-c2ccc(-c3ccc(CO)s3)o2)s1`, which “activity, negative = inhibition” value is on record?
**A.** inactive: 107%

**Q.** Which “activity, negative = inhibition” value does the source give for `NC[C@@H](O)c1ccc(O)c(O)c1` here?
**A.** inactive: -1.26%

**Q.** For `CC(C)c1ccccc1Cc1cc(C(=O)Nc2ccc(S(=O)(=O)c3ccccc3C(C)(C)C)cc2)c(O)c(O)c1O`, which Potency is on record?
**A.** inconclusive: 15.8 µM [inhibitor, full curve]

**Q.** With `O=C(Cc1ccc(Cl)c(Cl)c1)Nc1ccc([S+](=O)([O-])Nc2nnc(-c3ccccn3)s2)cc1` as the compound, how does the Potency read?
**A.** inconclusive: 79.4 µM [inhibitor, partial curve, poor fit]

**Q.** For `CCN(CC)C(=S)SSC(=S)N(CC)CC`, which Potency is on record?
**A.** inactive

**Q.** With `COc1ccccc1Nc1cc2ccccc2c(=O)[nH]1` as the compound, how does the Potency read?
**A.** active: 35.5 µM

**Q.** Which Potency does the source give for `O=C1CCCC2=C1C(c1[nH]ncc1Cl)N=C(Nc1nc3ccccc3o1)N2` (stereo not given) here?
**A.** inconclusive: 50.1 µM [inhibitor, partial curve, poor fit] and inconclusive: 35.5 µM [inhibitor, full curve]

**Q.** Which Potency does the source give for `CN(C(=O)CN(CCO)CC(=O)N(C)C(C)(C)Cc1ccccc1)C(C)(C)Cc1ccccc1` here?
**A.** inconclusive: 70.8 µM [inhibitor, partial curve, poor fit]

**Q.** With `CN1CCN(c2ccc(Nc3nn4c(=O)c5ccccc5nc4s3)cc2)CC1` as the compound, how does the Potency read?
**A.** inconclusive: 79.4 µM [inhibitor, partial curve, poor fit]

**Q.** With `CC1=C[C@@H]2[C@@H]([C@@H](O)C[C@@]3(C)[C@H]2C[C@@H](C)[C@]3(O)C(=O)CO)[C@@]2(C)Cc3cnn(-c4ccccc4)c3C=C12` as the compound, how does the Potency read?
**A.** inconclusive: 12.6 µM [inhibitor, full curve]

**Q.** Which Potency does the source give for `Oc1ccc(Cl)cc1Cc1cc(Cl)ccc1O` here?
**A.** inconclusive: 10 µM [inhibitor, full curve]

**Q.** Which Potency does the source give for `O=S(=O)(Nc1nccs1)c1ccc(Nc2nc(-c3ccccc3)cs2)cc1` here?
**A.** active: 50.1 µM

**Q.** With `CCCC(=O)c1cc(O)c(O)cc1O` as the compound, how does the Potency read?
**A.** active: 31.6 µM

**Q.** Which Potency does the source give for `CN(CC(=O)Nc1ccc(N2CCOCC2)cc1)Cc1c(O)ccc2ccccc12` here?
**A.** inconclusive: 70.8 µM [inhibitor, partial curve]

**Q.** With `Cc1ccsc1C1N=C(Nc2nc3ccccc3o2)NC2=C1C(=O)CCC2` (stereo not given) as the compound, how does the Potency read?
**A.** inconclusive: 63.1 µM [inhibitor, partial curve, poor fit]

**Q.** Which Potency does the source give for `CN1CCN(c2cccc(Nc3nn4c(=O)c5ccc(Br)cc5nc4s3)c2)CC1` here?
**A.** inconclusive: 50.1 µM [inhibitor, partial curve]

**Q.** With `C=CCNc1oc(-c2cccc3ccccc23)nc1C#N` as the compound, how does the “activity, negative = inhibition” value read?
**A.** inactive: -15.5%

**Q.** Which “activity, negative = inhibition” value does the source give for `Cn1c(NC2=NC3(CCCC3)C3=C(CCCC3=O)N2)nc2ccccc21` here?
**A.** inactive: -10.7%

**Q.** For `CS(=O)(=O)c1ccc(C(=O)OCC(=O)N2CCN(CCC3CCCCC3)CC2)cc1[N+](=O)[O-]`, which Potency is on record?
**A.** inconclusive: 39.8 µM [inhibitor, partial curve]

**Q.** Which Potency does the source give for `CC(=O)Oc1cccc2c1C(=O)c1c(OC(C)=O)cc(C(=O)O)cc1C2=O` here?
**A.** inconclusive: 50.1 µM [inhibitor, partial curve, poor fit]

**Q.** With `O=C(NCCCN1CCNCC1)c1cccc(-c2cc(O)c3ncccc3c2)c1` as the compound, how does the Potency read?
**A.** inconclusive: 35.5 µM [inhibitor, full curve]

**Q.** For `Cc1cc(NS(=O)(=O)c2ccc(NC(=O)Cc3cccc4ccccc34)cc2)no1`, which Potency is on record?
**A.** inconclusive: 20 µM [inhibitor, partial curve]

**Q.** With `COc1ccc2c(=O)n3nc(Nc4cccc(N5CCN(C)CC5)c4)sc3nc2c1` as the compound, how does the “activity, negative = inhibition” value read?
**A.** inactive: -9.89%

**Q.** With `CCN1CCN(c2ccc(Nc3ccc(-c4ccc(C(N)=O)cc4)n4ncnc34)cc2)CC1` as the compound, how does the Potency read?
**A.** inconclusive: 50.1 µM [inhibitor, partial curve]

**Q.** For `C[C@H](Cc1ccc(O)c(O)c1)[C@@H](C)Cc1ccc(O)c(O)c1`, which Potency is on record?
**A.** active: 12.6 µM

**Q.** For `Nc1ccc(CNc2ccc([S+](=O)([O-])Nc3nccs3)cc2)c(O)c1`, which Potency is on record?
**A.** active: 50.1 µM

**Q.** For `c1ccc(-n2ccc(-c3nnc4n3CCCCC4)c2)cc1`, which Potency is on record?
**A.** inconclusive: 89.1 µM [inhibitor, single point]
